{"source": "paper PMC8956313", "about": "“Biological investigation of N-methyl thiosemicarbazones as antimicrobial agents and bacterial carbonic anhydrases inhibitors” (Journal of Enzyme Inhibition and Medicinal Chemistry, 2022)", "key": {"HpαCA": {"target": "T1, HpαCA (Helicobacter pylori, UniProt O25798)", "T1 construct": "gene HP_1186; recombinant, expressed in E. coli (DE3), purified", "T1 sequence (O25798 19-202)": "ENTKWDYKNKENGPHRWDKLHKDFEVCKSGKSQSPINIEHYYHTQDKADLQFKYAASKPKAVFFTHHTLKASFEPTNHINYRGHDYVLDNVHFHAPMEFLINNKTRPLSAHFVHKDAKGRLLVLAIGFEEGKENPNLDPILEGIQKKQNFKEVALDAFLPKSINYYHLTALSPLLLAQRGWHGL", "assay": "stopped-flow CO2 hydrase assay", "assay_type": "biochemical", "settings": "HEPES pH 7.40, 20 mM Na2SO4, 15 min preincubation, room temperature"}, "SauβCA": {"target": "T2, SauβCA", "T2 construct": "gene SauBCA", "settings": "TRIS pH 8.30, 20 mM Na2SO4, 15 min preincubation, room temperature"}}, "data": [{"smiles": "CC(=O)Nc1nnc(S(N)(=O)=O)s1", "note": "[AAZ, acetazolamide]", "values": [{"measurement": "Ki", "setting": "HpαCA", "value": 0.0021, "unit": "µM"}, {"measurement": "Ki", "setting": "SauβCA", "value": 0.63, "unit": "µM"}]}]}
